Structures are written as SMILES. Peptide text beside a SMILES is read from it.

Data set [1] in a line: Beverage swallowing test: duration of cooling in throat and chest and adverse taste ranking. Also noted: key: 0 (no adverse taste); 1 (mild taste); 2 (moderate taste); 3 (adverse taste). The following applies: for Adverse taste (scale 0-3): 20 mg in 50 mL (0.4 mg/mL). The data set is classed as in vivo, human. The text has this:
DIPA compounds dissolved in water have an unpleasant, bitter, and metallic taste. The goal of the experiments was to find an adjunct that would make the DIPA beverage palatable. The anatomic sites for bitterness (adverse taste) are primarily on the dorsal surface of the posterior one-third of the tongue. The coolness and refreshment areas are on the hypopharynx and the upper one-third of the esophagus (FIG. 1). These are two different anatomic sites. Sensations of coolness from the oral cavity and oropharynx are not the primary targets. The esophagus is in the center of the thorax. When its lumen feels “cool,” this is like turning on the central air conditioner for the body. The goal of the beverage is to turn on this central air conditioning for at least 30 min and preferably longer without adverse tastes in the oral cavity. That is, the goal is to produce cool in the center of the chest but without bitter taste. A standard procedure was set. The cooling agent at various concentrations was made up to 50 mL with a liquid in a plastic cup (Flak Tek, Inc. South Carolina), beaker, whiskey glass, or bottle. For example, the final concentration of the coolant in the test solution may range from 0.1 to 0.5 mg/mL. The temperature of the liquid was measured and then swallowed. For example, 50 mL could be swallowed in five gulps or sipped. The duration of cooling in the throat and chest was recorded at various intervals until the cooling disappeared. The ranking of adverse taste was on a scale of 0 (no adverse taste), 1 (mild taste), 2 (moderate taste), or 3 (adverse taste). The value was for at least three trials per beverage.
Examples of test procedures and results. The usual method was to prepare a 2-mL vial containing a DIPA dissolved in water. The contents of the vial were added to beverages such as beer, soda drinks, fruit juice, coffee, tea, or water. A taste-modulating adjunct such as a sweetener can be in the 2-mL vial or present in the beverage. The drink is gulped at about 5 mL per swallow. The time and temperatures are noted. The onset of coolness in the center of the upper chest usually occurs within 3 min. For active compounds, this effect was pleasant and, depending on dose, could last for 10 minutes, an hour, or more. Gulping the liquid was important. When held in the mouth, the drink is cool and may have taste, but cooling in the center of the chest is reduced. Thus, sipping is not the correct method of drinking. Using these methods, a bottle of beer (e.g., ˜330 mL containing 33 mg of DIPA-1-9), if drank in a leisurely setting for one hour, can provide comfortable body cooling for 3 hr. Similarly, a smaller bottle of carbonated soda water (e.g., 200 mL), containing 15 mg of DIPA-1-6 produced immediate cooling relief for 30 min for individuals, for example, taking a break from playing tennis in the heat. For pharmaceutical uses, a tinted bottle with 20 mg of DIPA-1-9 in 50 mL of water with Splenda's Monk Fruit dissolved in it would be palatable and relieve the discomforts of indigestion.

Data set [2] is described as follows: Sweeteners as taste-modulators of DIPA. The data set is classed as in vivo, human. Details: key to Ranking as taste-modulator of DIPA: excellent, when off-tastes are barely detectable; very good, when off-tastes are slightly present but not considered objectionable; good, when off-tastes are present but tolerated; not effective, where there is inadequate modulation of taste; poor, when the tastes are aversive. The note with it: for Effect on the off-tastes of DIPA (in words): artificial sweeteners; for Ranking as taste-modulator of DIPA: sweetener prepared at 100 mL as in the table, solutions swallowed at 15 to 50 mL per unit session.

With `CCCCCCCCCP(=O)(C(C)C)C(C)C` [DIPA-1-9, 1-Diisopropyl-phosphinoyl-nonane], the “Adverse Taste” value amounted to 0 in data set [1] (0.4 mg/L, apple juice (Martinelli, Mott's), 21 °C); 0 in data set [1] (0.4 mg/L, grape juice (Welch Grape), 20 °C); 0 in data set [1] (0.4 mg/L, guarana juice soda (Guarana Antarctica), 10 °C); 2 in data set [1] (0.4 mg/L, orange juice (fresh-squeezed), 8 °C); 3 in data set [1] (0.4 mg/L, sweetened soda (Coca-Cola), 7 °C); 0 in data set [1] (0.4 mg/L, wine (Moscato d'Asti), 8 °C). Further, the “Adverse Taste” value in data set [1] (0.4 mg/mL, hot cappuccino drink (3 Coracoes, Brazil), 70 °C) was 2; in data set [1] (0.4 mg/mL, hot coffee + herbal sweetener (117 + Stevia extracts), 75 °C) it was 1; in data set [1] (0.4 mg/mL, hot coffee cream/sugar (117, Nescafe), 65 °C), 1; in data set [1] (0.4 mg/mL, hot coffee-no cream or sugar (117, Nescafe), 62 °C), 1; in data set [1] (0.4 mg/mL, hot water + monk fruit (Splenda monk fruit), 50 °C), 0; in data set [1] (0.4 mg/mL, hot water + monk fruit (Splenda monk fruit), 70 °C), 0. Also, the “Adverse Taste” value came to 2 in data set [1] (0.4 mg/mL, iced cold cappuccino (Starbuck's frappaccino), 8 °C); 2 in data set [1] (0.4 mg/mL, red tea (Peach-Ceylon, no sweetener), 46 °C); 0 in data set [1] (0.4 mg/mL, sweetened tea (Ito En + 10% sucrose), 10 °C); 0 in data set [1] (0.4 mg/mL, sweetened tea (Ito En + Truvia or Monk's Fruit), 10 °C); 3 in data set [1] (0.4 mg/mL, unsweetened green tea (Ito En), 10 °C); 0 in data set [1] (50 mL beverage, 0.2 mg/mL + Stevia, 20 °C). Moreover, the “Adverse Taste” value was 0 in data set [1] (50 mL beverage, 0.4 mg/mL + Stevia, 20 °C); 0 in data set [1] (50 mL beverage, 0.4 mg/mL + Sucrose (10%), 20 °C); 1 in data set [1] (50 mL beverage, 0.8 mg/mL + Stevia, 20 °C); 1 in data set [1] (50 mL beverage, 0.8 mg/mL + Sucrose (10%), 20 °C); 0 in data set [1] (50 mL beverage, 0.8 mg/mL + Sucrose (15%), 20 °C); 0 in data set [1] (Sake (Japanese rice wine), 10 °C). In addition, the “Adverse Taste” value in data set [1] (beer (Heineken), 7 °C) was determined as 0; in data set [1] (ginger ale (Canada Dry), 11 °C), 1; in data set [1] (ginger beer, juice (Q beer, Suja), 9 °C), 0; in data set [1] (non-alcoholic beer (Heineken 00), 7 °C) it was 0; in data set [1] (tonic water with quinine (Schweppes), 7 °C) it was 0; in data set [1] (wheat ale (Blue Moon), 9 °C), 0. For the same compound, the “Adverse taste (scale 0-3)” value in data set [1] (carbonated water (Perrier, La Croix), 8 °C) is reported as 1; in data set [1] (water (Crystal Geyser), 10 °C), 2; in data set [1] (water (Crystal Geyser), 25 °C) it was 3; in data set [1] (water (Crystal Geyser), 74 °C), 3; in data set [1] (water + herbal sweetener (+Stevia leaf), 8 °C), 0; in data set [1] (water + herbal sweetener (+Stevia leaf), 22 °C), 0. Moreover, the “Adverse taste (scale 0-3)” value came to 0 in data set [1] (water + herbal sweetener (+Stevia leaf), 72 °C) and 0 in data set [1] (water + synthetic sweetener (Neotame at 0.2 mg/mL), 10 °C).
In the case of `CC1=CC(=O)[N-]S(=O)(=O)O1.[K+]` [acesulfame-K], in data set [2], the “Effect on the off-tastes of DIPA (in words)” value (shortened to “Effect on the off-tastes”) is listed as “ineffective” and the “Ranking as taste-modulator of DIPA” value is on record as “poor”.
Take `COC(=O)[C@H](Cc1ccccc1)NC(=O)[C@@H](N)CC(=O)O` [aspartame] (HELM PEPTIDE1{D.F.[CO[*:1]]}$$$$V2.0): in data set [2], the “Effect on the off-tastes” value is listed as “inhibited the off-tastes”.
Regarding `COC(=O)[C@H](Cc1ccccc1)NC(=O)[C@H](CC(=O)O)NCCC(C)(C)C` [neotame], in data set [2], the “Effect on the off-tastes” value is given as “completely masked” and the “Ranking as taste-modulator of DIPA” value is on record as “excellent for”.
Take `O=C1NS(=O)(=O)c2ccccc21` [saccharin]: in data set [2], the “Effect on the off-tastes” value is on record as “ineffective” and the “Ranking as taste-modulator of DIPA” value was “poor”.
The matching figures for `OC[C@H]1O[C@H](O[C@]2(CCl)O[C@H](CCl)[C@@H](O)[C@@H]2O)[C@H](O)[C@@H](O)[C@H]1Cl` [sucralose]: “not very effective” and “not effective”.
`OC[C@H]1O[C@@](CO)(O[C@H]2O[C@H](CO)[C@@H](O)[C@H](O)[C@H]2O)[C@@H](O)[C@@H]1O` [sucrose]: the “Ranking as taste-modulator of DIPA” value in data set [2] is reported as “very good”.

These data come from patent publication US12667122B2, “Taste-modulation of cooling agents in beverages” (priority 2019, dated 2026).
